Patent US4910203A, “Pteridine compounds” (priority 1984, dated 1990)

System: male Wistar rats
Conditions: furosemide 8.27 mg/kg i.v. alone, 1.5 hours, mean
Method: They were orally given 20 ml/kg of an 0.9% NaCl solution just before the test substance was administered intravenously. […] Injection was into the caudal vein under light ether anasthesia. As a rule six test animals were used per test. The animals were individually placed into diuresis cages and the urine was collected after 1.5 hours. Analysis was performed as for the determination of potency given above. IA stands for 2,4,7-triamino-6-[4-(2-hydroxy-3-dimethylaminopropoxy)phenyl]-pteridine.

With NS(=O)(=O)c1cc(C(=O)O)c(NCc2ccco2)cc1Cl [Furosemide, 4-chloro-N-furfuryl-5-sulfamoylanthranilic acid] the “Ca^2+ excretion” value (control 0.07) was 0.13 mmol/kg, the “Mg^2+ excretion” value (control 0.08) was 0.11 mmol/kg and the “K^+ excretion” value (control 0.33) was 0.68 mmol/kg. For the same molecule, the “Na^+ excretion” value (control 0.61) was 6.77 mmol/kg.
